This note sets out measurements from PubChem BioAssay AID2685 (National Center for Advancing Translational Sciences (NCATS), 2010).

One may read the AC50 as the midpoint of the concentration-response curve, whichever way the signal moves. Read a high AC50 as weaker potency.

The nature of the assay: qHTS Assay for Lipid Storage Modulators in Drosophila S3 Cells.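 On cell number change: cells counted by Cell Tracker Red CMTPX staining in the red channel.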 To be noted: BODIPY lipid droplet fluorescence, 18-24 h; for cell number change: measured here: cell count max response, cells fed with added oleic acid. An outline of the steps:
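Drosophila S3 cells got compounds at several concentrations plus oleic acid (400 uM solution). Laser-scanning cytometry with 488 nm excitation read lipid droplets at 500-530 nm and cells at 575-640 nm. Percent activity was relative to 20 uM Triacsin C.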
For orientation: Quantitative high-throughput screening tests each substance at several concentrations.

Where [1] appears, read: measured here: cell number channel AC50, cells fed with added oleic acid.
Where [2] appears, read: measured here: lipid fluorescence (Fed channel) AC50, cells fed with added oleic acid.

This is one part of the list. The main result of the screen is listed elsewhere. These columns were measured beside it and carry no call. Compounds called inactive in the main read-out are mostly missing here. The note in brackets gives the kind of curve behind each potency; many fits are weak.

In the case of `CN1CCN(C2=C(Cl)C(=O)N(c3ccc(Cl)c(Cl)c3)C2=O)CC1`, the cell number change was 0.557%. Also, the AC50 under setting [1] is 0.13 µM [falling, full curve, poor fit]. Further, the AC50 under setting [2] is 6.51 µM [falling, single point].

With `CCOC(=O)c1ccccc1NC(=O)COC(=O)CN1C(=O)C2CC=CCC2C1=O` (configuration not stated), the cell number change was -47%. The AC50 under setting [1] was 32.6 µM [falling, single point]. Moreover, the AC50 under setting [2] was 0.58 µM [falling, single point].

With `COC(=O)Cc1c(C)nc2nc(-c3ccc(C)cc3)[nH]n2c1=O`, the cell number change is -1.35%. For the same molecule, the AC50 under setting [2] is 6.51 µM [falling, partial curve].

Turning to `O=C(Nc1ccccc1C(=O)OCC(=O)N1CCc2ccccc2C1)c1ccco1`, the cell number change is -7.1%. Also, the AC50 under setting [2] is 0.00461 µM [falling, full curve, poor fit].

For the molecule `Clc1ccc(-c2nc3cnccn3c2NC2CCCC2)cc1`, the cell number change is -34.3%. Moreover, under setting [1], the AC50 is 32.6 µM [falling, single point]. In addition, under setting [2], the AC50 was 29.1 µM [falling, single point].

On to `Cc1ccc(CNC(=O)c2ccc(Cl)c(S(=O)(=O)N3CCCCC3)c2)cc1`, for which the cell number change is 20.1%. Also, the AC50 under setting [1] was 0.103 µM [falling, full curve, poor fit].

In the case of `CCOC(=O)c1c(NC(=O)CSc2nncn2C)sc(C)c1C`, the AC50 is 2.91 µM [rising, partial curve] under setting [1] and 2.91 µM [rising, partial curve] under setting [2].

Turning to `COc1ccc(NC(=S)N(CCc2c(C)[nH]c3ccc(C)cc23)Cc2cccs2)cc1`, the cell number change was -0.808%.

For `O=C(Nc1cccc2ncccc12)c1ccc(Cl)cc1`, the cell number change was found to be 4.99%. Further, the AC50 under setting [1] is 6.51 µM [falling, single point]. Moreover, under setting [2], the AC50 was 14.6 µM [falling, partial curve].

`COc1ccc(-c2cc(C(=O)N(C)CC(=O)Nc3cccc(F)c3)c3ccccc3n2)cc1`: the cell number change was determined as 49%. Under setting [1], the AC50 was 6.51 µM [rising, partial curve].

Take `COc1cc(C=O)cc(Cl)c1OC(=O)N1CCOCC1`: the cell number change is -4.26%. Moreover, the AC50 under setting [1] is 6.51 µM [rising, partial curve, poor fit].

As to `O=C(CSc1nnc(Cn2cnc3ccccc32)o1)Nc1cccc2ccccc12`, the AC50 under setting [2] is 23.1 µM [falling, single point].

Regarding `COc1ccc2c3c(c(=O)oc2c1)C1O[C@](CCCCN2C(=O)c4ccccc4C2=O)(Cc2cc(OC)c(OC)cc21)O3`, the cell number change is -20.2%.

With `CSc1ccccc1NC(=O)CN(C)C(=O)/C=C/c1ccccc1`, the cell number change worked out at 0.519%. For the same molecule, the AC50 under setting [2] was 0.116 µM [falling, full curve, poor fit].

`O=C(Cn1nnc(-c2ccccc2F)n1)Nc1cccc2ncccc12`: the AC50 under setting [1] is 4.61 µM [rising, partial curve].

`CCn1c(CCCNC(=O)c2ccc(F)cc2)nc2ccccc21`: the cell number change is 16.8%. Also, the AC50 under setting [2] was 6.51 µM [rising, single point].

Take `O=C(C1=C(O)C(=O)N(CCc2ccccc2)C1c1ccncc1)c1cc2ccccc2o1` (configuration not stated): the cell number change was -11%. In addition, the AC50 under setting [2] was 0.0291 µM [rising, full curve, poor fit].

Regarding `Cc1ccc(C)c(OCc2cc(C(=O)N3CCN(c4ccccc4)CC3)no2)c1`, the cell number change was 1.39%. The AC50 under setting [2] was 0.731 µM [falling, full curve, poor fit].

Consider `COc1ccc(S(=O)(=O)Cc2ccc(C(=O)NC3CCC(C)CC3)o2)cc1` (configuration not stated), for which the cell number change was 21.8%. The AC50 under setting [2] was 29.1 µM [rising, partial curve, poor fit].

Turning to `CCOC(=O)C1CCCN(CC(O)COC(c2ccccc2)c2ccccc2)C1` (configuration not stated), the cell number change worked out at 12.6%. The AC50 under setting [2] is 2.91 µM [rising, single point].

As for `S=C(NCCC1=CCCCC1)Nc1ccccc1`, the cell number change is -21.6%. For the same molecule, the AC50 under setting [2] is 32.6 µM [falling, single point].

For the molecule `CCCN(CC1CC1)C(=O)COC(=O)c1ccc2c(c1)C(=O)N(c1ccc(OCC)cc1)C2=O`, the cell number change is -27.6%. Moreover, the AC50 under setting [1] was 0.00461 µM [rising, full curve, poor fit].

With `O=C(CNC(=O)c1ccc(Cl)cc1Cl)OCCCn1c(=O)[nH]c2ccccc21`, under setting [2], the AC50 is 29.1 µM [falling, single point].

Consider `O=C(CN1CCN(Cc2ccccc2)CC1)c1c[nH]c2ccccc12`, for which the cell number change is 11%.

Regarding `COc1cc(/C=C2/C(=N)N3N=C(CC(=O)N4CCOCC4)SC3=NC2=O)ccc1OCc1ccc(F)cc1`, the cell number change is -3.54%. In addition, the AC50 under setting [2] is 29.1 µM [rising, single point].

For `COc1ccc(C2=NOC(COc3ccc4c(C)cc(=O)oc4c3)C2)c(OC)c1` (configuration not stated), the cell number change stood at 8.87%. Under setting [2], the AC50 was 7.31 µM [rising, partial curve].

In the case of `CC(CCc1ccccc1)NC(=O)CN1C(=O)NC2(CCCCC2)C1=O` (configuration not stated), the cell number change is -12%. Under setting [2], the AC50 is 18.4 µM [falling, single point].

For `CC1CCN(CCOc2ccccc2-c2ccccc2)CC1`, the cell number change was -18.5%. Also, the AC50 under setting [2] was 0.00461 µM [falling, full curve, poor fit].

With `COC(=O)CSc1ccc2c(N)c(C(=O)OC)sc2c1`, the cell number change came out at 11.9%. Besides, the AC50 under setting [2] is 8.2 µM [rising, partial curve, poor fit].

With `COc1ccccc1NC(=O)C1C2C=CC(C2)C1C(=O)NCc1cccnc1` (configuration not stated), the cell number change turned out to be 8.47%. Under setting [2], the AC50 is 29.1 µM [falling, single point].

`Cn1c(=O)[nH]c(=O)c2c1nc(N1CCOCC1)n2CCSc1nnnn1-c1ccccc1`: the cell number change amounted to 20.5%. For the same molecule, the AC50 under setting [2] was 2.06 µM [rising, full curve].

On to `CC(C)c1ccc(-c2c(C#N)c(N)nc3c2CCCCC3)cc1`, for which the cell number change was -45%. Moreover, the AC50 under setting [1] was 29.1 µM [falling, single point].

Turning to `CC(OC(=O)Cc1n[nH]c(=O)c2ccccc12)C(=O)Nc1ccc(Cl)cn1` (configuration not stated), the cell number change is -53%. Under setting [1], the AC50 was 7.31 µM [falling, partial curve, poor fit]. Moreover, the AC50 under setting [2] is 29.1 µM [falling, single point].

As to `Cc1cc(C)c2nc(NC(=O)c3cc(C)on3)sc2c1`, the cell number change came to 2.06%.

Turning to `CN(/N=C/c1cccc(Br)c1)C1=NS(=O)(=O)c2ccccc21`, the cell number change was 11.8%. Further, the AC50 under setting [2] is 1.03 µM [falling, partial curve].

`CCOC(=O)c1c(C)[nH]c(C)c1S(=O)(=O)NC(CC)CN1CCOCC1` (configuration not stated): under setting [2], the AC50 was 1.3 µM [rising, partial curve, poor fit].

Regarding `Cc1cccc(-n2cnc(C(=O)N/N=C\c3ccc(Br)cc3)c2)n1`, the cell number change came to 68%. The AC50 under setting [1] was 1.3 µM [rising, full curve]. The AC50 under setting [2] was 2.59 µM [rising, partial curve].

Take `CCc1ccc(NC(=O)C(CC)Sc2nc3cc4c(cc3c(=O)n2Cc2ccco2)OCO4)cc1` (configuration not stated): the cell number change was determined as 114%. Besides, the AC50 under setting [1] is 3.66 µM [rising, full curve, poor fit]. In addition, the AC50 under setting [2] is 5.8 µM [rising, full curve].

As for `COc1cn(-c2ccccc2)nc1C(=O)Nc1ccccc1`, under setting [2], the AC50 is 0.82 µM [falling, full curve].

For the molecule `CC(C)Cc1ccc(CN2CCCC(NC(=O)c3ccnn3C)C2)cc1` (configuration not stated), the cell number change was -23.8%. In addition, the AC50 under setting [2] is 25.9 µM [falling, partial curve, poor fit].

As to `COc1cccc(NC(=O)N(Cc2cc3cc(C)cc(C)c3[nH]c2=O)CC2COCCO2)c1` (configuration not stated), the cell number change is -14.3%.

On to `Cc1cc2nc(-c3ccc(SCc4ccc(C(=O)O)cc4)nc3)[nH]c2cc1C`, for which the cell number change was -40.8%. Moreover, the AC50 under setting [1] was 23.1 µM [falling, single point]. In addition, the AC50 under setting [2] was 29.1 µM [falling, single point].

Regarding `Cc1ccc2cccc(Oc3ncnc4sc(C)c(C)c34)c2n1`, the cell number change is -5.4%.

Consider `COc1ccc(/C=C/C(=O)O)cc1S(=O)(=O)N1CCCC1`, for which the cell number change is -10.2%.

`Cc1ccc2nc(/N=C(\N)NC(=O)NC3CCCCC3)nc(C)c2c1`: the cell number change is -48%. Also, the AC50 under setting [1] was 29.1 µM [falling, single point].

`N=c1c(S(=O)(=O)c2ccc(Cl)cc2)cc2c(=O)n3ccccc3nc2n1C1CCCC1`: the AC50 under setting [2] was 14.6 µM [falling, partial curve].

Take `Cc1ccc(-c2cc(-c3cccs3)[nH]n2)c(O)c1`: the AC50 under setting [2] was 29.1 µM [falling, single point].

Regarding `Cc1c(C(=O)OCC(C)C)[nH]c2c1C(=O)CC(c1cccs1)C2` (configuration not stated), the cell number change is -6.83%.

For the molecule `CC1=C(C(=O)N2CCOCC2)C(c2cc(C)cs2)NC(=O)N1` (configuration not stated), the cell number change was -203%. The AC50 under setting [1] was 0.103 µM [falling, full curve, poor fit]. Further, the AC50 under setting [2] is 25.9 µM [falling, single point].

Take `CC1=C(C(=O)Nc2cccc(C(=O)NC3CCCC(C)C3C)c2)SCCO1` (configuration not stated): the cell number change was -4.13%. Moreover, under setting [2], the AC50 was 0.58 µM [rising, single point].

On to `O=C(CCCOc1ccc(Cl)cc1Cl)N/N=C/c1ccccc1`, for which the cell number change was -65%. Moreover, the AC50 under setting [1] is 9.2 µM [falling, partial curve]. Further, the AC50 under setting [2] was 5.8 µM [falling, partial curve, poor fit].

For `CC(=O)Nc1nc2c(ccc3ccccc32)s1`, the cell number change was 3.98%. For the same molecule, the AC50 under setting [2] was 4.11 µM [falling, single point].

Regarding `COc1cc(/C=C2/NC(=O)N(Cc3ccccc3F)C2=O)ccc1Oc1ccc([N+](=O)[O-])cn1`, the cell number change stood at 37.7%. Further, the AC50 under setting [1] was 16.4 µM [rising, single point]. Further, under setting [2], the AC50 is 0.291 µM [rising, partial curve, poor fit].

Regarding `O=C(Nc1cccc(-c2cn3ccccc3n2)c1)c1ccccc1`, the AC50 by setting is: under setting [1], 0.731 µM [rising, single point]; under setting [2], 0.58 µM [rising, single point].

On to `O=C(Nc1ccc(-c2nc3ccccc3[nH]2)cc1)c1ccc2c(c1)OCO2`, for which the cell number change was -72.8%. The AC50 under setting [1] was 25.9 µM [falling, single point]. In addition, under setting [2], the AC50 is 23.1 µM [falling, single point].

For the molecule `Cc1ccc2c(c1)Oc1ccc(NC(=O)CCl)cc1C(=O)N2`, the cell number change is -37.4%. The AC50 under setting [1] was 0.82 µM [falling, full curve]. Besides, under setting [2], the AC50 is 0.92 µM [falling, full curve].

With `O=C(O)c1cccc(CN2C(=O)c3ccccc3C2=O)c1`, the cell number change was -7.8%. Also, under setting [2], the AC50 was 5.8 µM [rising, single point].
